Results from EP1757701A1.
These are yes or no findings as the source states them, for the method shown. Some results given as binding are weak or reduced against the parent protein; the word gives no strength.

Each binder was assayed against IgG-Fc [IgG part: P01857] (assay: phage clone selected on IgG-Fc).

binding, binds:
KEASCSWHLGELVWCVAGVE
KEASCSYWLGELVWCDTFDE
GEQDCSWHLGELVWCTPMEV
GEADCAWHLGELVWCTKVEE
KEASCSYWLGELVWCSGVEG
GEEDCAWHLGELVWCSGGDF
KVADCAWHMGELVWCTEVEG
KEADCAWHLGELVWCVAGVE
READCAWHLGELVWCSERDL
KEASCAWHLGELVWCSEVEE
WEEDCAWHLGELVWCAEFDE
GEQDCSYHMGELVWCTTVDG
EKEDCSYWLGELVWCVAGVE
DLADCSYWLGELVWCSRVEG
KEASCSYWLGELVWCDNGVE
KEARCWYWHGELVWCSDPEE
GTMECSWHQGELVWCTPTLA
EQADCAWHLGELVWCTPMVF
KEASCSYWLGEVWKCKSGVE
WVDCAYHLGELVWCSTFEE
GVADCAWHLGELVWCTERED
WVEDCAWHMGELVWCTKVDE
EEPDCSWHLGELVWCTPIEV
GEEDCAWHLGELVWCTDVED
EEADCSYWLGELVWCVAGVE
KEASCSYWLGELVWCSDLWE
EMRDCSWHLGELVWCAHMEG
KEASCSYWLGELVWCSAGVE
AVSKCSFHMGELVWCSDVMN
GSWECAYHLGELVWCETGSG
EVADCSWHLGELVWCTEGEF
WEADCAWHLGELVWCTKVEE
GEPDCAWHLGELVWCTPMVF
GRMECAWHQGELVWCTPTLE
GEADCSYHLGELVWCNDFEE
SETTCSYWLGELVWCVAGVE
AWKTCQWLGELVWCVAGVE
NQVSCSYSRGELVWCSKQSQ
RVEDCAYHLGELVWCTEGDE
KEASCSYHLGELVWCVAGVE
EVEDCAYHLGELVWCSDLEG
GMRDCSYHLGELVWCSDMEL
RVASCAWHLGELVWCDGLDG
WRGGCSWHMGELVWCEHDME
KEASCSYWLGELVWCSEGVE
KEAECSYHLGELVWCVAGVE
KEAMCSYWLGELVWCESDMP
KEASCSYWLGELVWCSPGVE
KEASCSYWLGELVWCDTLTE
KEASCSYWLGELVWCDGLDE
GEEDCSYHLGELVMCTELDD
KEADCAWHMGELVWCSEMEG
EEPDCSWHLGELVMCTPMEV
EEASCAYHLGELVWCDAFDV
RVADCAWHMGELVWCSELEV
GEADCAWHLGELVWCTPMDL
GEASCAYHLGELVWCDEGEG
KEASCSYWLGELVWCTEGVE
GVRNCAYHLGELVWCTPMEF
EDPDCSYWLGELVWCVAGVE
KEASCSYWLGELVWCDDGVE
VAEPCAYHLGELVWCEVLKG
ESEDCSYWLGELVWCVAGVE
